In article PMC4764573 one finds binding data, which are given here for 4 molecules.

By UniProt entry, the sequences of proteins in these tests, tags left out.
UniProt Q6P5F9: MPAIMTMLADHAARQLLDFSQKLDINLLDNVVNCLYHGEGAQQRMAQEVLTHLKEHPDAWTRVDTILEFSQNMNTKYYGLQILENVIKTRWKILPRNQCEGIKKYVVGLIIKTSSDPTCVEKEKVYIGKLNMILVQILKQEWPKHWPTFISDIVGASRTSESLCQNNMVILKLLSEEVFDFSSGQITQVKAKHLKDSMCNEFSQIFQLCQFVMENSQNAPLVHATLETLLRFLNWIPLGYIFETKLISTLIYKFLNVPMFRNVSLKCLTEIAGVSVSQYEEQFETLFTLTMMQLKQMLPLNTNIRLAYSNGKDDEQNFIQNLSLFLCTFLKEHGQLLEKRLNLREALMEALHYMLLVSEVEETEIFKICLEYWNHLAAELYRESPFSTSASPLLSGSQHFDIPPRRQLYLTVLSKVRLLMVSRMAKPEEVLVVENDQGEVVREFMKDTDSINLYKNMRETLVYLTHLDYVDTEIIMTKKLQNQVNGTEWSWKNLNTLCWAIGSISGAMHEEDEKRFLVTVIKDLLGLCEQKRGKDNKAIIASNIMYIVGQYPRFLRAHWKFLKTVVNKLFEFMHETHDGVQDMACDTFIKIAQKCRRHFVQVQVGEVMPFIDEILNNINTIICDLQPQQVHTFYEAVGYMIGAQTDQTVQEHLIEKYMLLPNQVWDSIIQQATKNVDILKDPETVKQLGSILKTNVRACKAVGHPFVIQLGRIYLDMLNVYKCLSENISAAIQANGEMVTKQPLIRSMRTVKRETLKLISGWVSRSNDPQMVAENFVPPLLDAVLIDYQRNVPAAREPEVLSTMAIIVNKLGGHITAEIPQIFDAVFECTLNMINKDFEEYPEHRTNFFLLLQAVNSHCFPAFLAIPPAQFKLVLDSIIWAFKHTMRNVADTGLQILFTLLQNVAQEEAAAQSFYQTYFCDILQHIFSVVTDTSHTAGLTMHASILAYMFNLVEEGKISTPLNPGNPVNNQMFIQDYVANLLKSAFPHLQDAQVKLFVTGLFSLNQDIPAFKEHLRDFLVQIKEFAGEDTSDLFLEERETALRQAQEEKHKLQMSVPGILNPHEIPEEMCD

The target of this assay is mmCRM1 (mouse CRM1), biotinylated version carrying an Avi-tag (mouse) (UniProt Q6P5F9). Put plainly: affinity purification with mass spectrometry; as a1, with cytosolic HeLa S100 extract on immobilised CRM1 (taken as mmCRM1), with 5 μM RanGTP (hsRanQ69L^5-180); only the target purified.

These are yes or no findings as the source states them, for the method shown. Binding seen in cells or lysates may run through a third protein. These calls come from enrichment with a bait or labelling near it, and not all partners need be listed. No binding means not detected with the bait.

B1: human Cys tRNA ligase (HeLa extract) (enzyme, UniProt P49589 1-748)
chain: MADSSGQQGKGRRVQPQWSPPAGTQPCRLHLYNSLTRNKEVFIPQDGKKVTWYCCGPTVYDASHMGHARSYISFDILRRVLKDYFKFDVFYCMNITDIDDKIIKRARQNHLFEQYREKRPEAAQLLEDVQAALKPFSVKLNETTDPDKKQMLERIQHAVQLATEPLEKAVQSRLTGEEVNSCVEVLLEEAKDLLSDWLDSTLGCDVTDNSIFSKLPKFWEGDFHRDMEALNVLPPDVLTRVSEYVPEIVNFVQKIVDNGYGYVSNGSVYFDTAKFASSEKHSYGKLVPEAVGDQKALQEGEGDLSISADRLSEKRSPNDFALWKASKPGEPSWPCPWGKGRPGWHIECSAMAGTLLGASMDIHGGGFDLRFPHHDNELAQSEAYFENDCWVRYFLHTGHLTIAGCKMSKSLKNFITIKDALKKHSARQLRLAFLMHSWKDTLDYSSNTMESALQYEKFLNEFFLNVKDILRAPVDITGQFEKWGEEEAELNKNFYDKKTAIHKALCDNVDTRTVMEEMRALVSQCNLYMAARKAVRKRPNQALLENIALYLTHMLKIFGAVEEDSSLGFPVGGPGTSLSLEATVMPYLQVLSEFREGVRKIAREQKVPEILQLSDALRDNILPELGVRFEDHEGLPTVVKLVDRNTLLKEREEKRRVEEEKRKKKEEAARRKQEQEAAKLAKMKIPPSEMFLSETDKYSKFDENGLPTHDMEGKELSKGQAKKLKKLFEAQEKLYKEYLQMAQNGSFQ
Turning to B1, the binding result is reported as “no binding”.

B2: CDC37L (HeLa extract) (protein, UniProt Q7L3B6 1-337)
chain: MEQPWPPPGPWSLPRAEGEAEEESDFDVFPSSPRCPQLPGGGAQMYSHGIELACQKQKEFVKSSVACKWNLAEAQQKLGSLALHNSESLDQEHAKAQTAVSELRQREEEWRQKEEALVQREKMCLWSTDAISKDVFNKSFINQDKRKDTEDEDKSESFMQKYEQKIRHFGMLSRWDDSQRFLSDHPYLVCEETAKYLILWCFHLEAEKKGALMEQIAHQAVVMQFIMEMAKNCNVDPRGCFRLFFQKAKAEEEGYFEAFKNELEAFKSRVRLYSQSQSFQPMTVQNHVPHSGVGSIGLLESLPQNPDYLQYSISTALCSLNSVVHKEDDEPKMMDTV
Regarding B2, the binding entry is reported as “binds”.

B3: m7GpppX diphosphatase (HeLa extract) (enzyme, UniProt Q96C86 1-337)
chain: MADAAPQLGKRKRELDVEEAHAASTEEKEAGVGNGTCAPVRLPFSGFRLQKVLRESARDKIIFLHGKVNEASGDGDGEDAVVILEKTPFQVEQVAQLLTGSPELQLQFSNDIYSTYHLFPPRQLNDVKTTVVYPATEKHLQKYLRQDLRLIRETGDDYRNITLPHLESQSLSIQWVYNILDKKAEADRIVFENPDPSDGFVLIPDLKWNQQQLDDLYLIAICHRRGIRSLRDLTPEHLPLLRNILHQGQEAILQRYRMKGDHLRVYLHYLPSYYHLHVHFTALGFEAPGSGVERAHLLAEVIENLECDPRHYQQRTLTFALRADDPLLKLLQEAQQS
Regarding B3, the binding result is given as “no binding”.

B4: human PEX19 (HeLa extract) (protein, UniProt P40855 1-299)
chain: MAAAEEGCSVGAEADRELEELLESALDDFDKAKPSPAPPSTTTAPDASGPQKRSPGDTAKDALFASQEKFFQELFDSELASQATAEFEKAMKELAEEEPHLVEQFQKLSEAAGRVGSDMTSQQEFTSCLKETLSGLAKNATDLQNSSMSEEELTKAMEGLGMDEGDGEGNILPIMQSIMQNLLSKDVLYPSLKEITEKYPEWLQSHRESLPPEQFEKYQEQHSVMCKICEQFEAETPTDSETTQKARFEMVLDLMQQLQDLGHPPKELAGEMPPGLNFDLDALNLSGPPGASGEQCLIM
Turning to B4, the binding entry is listed as “binds”.
